Assay results from the supplement of paper PMC12889115.
The list shows a part of the results. Values are raw readings; no control value is given beside them.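 Primary screen: polymyxin B was added at a level permeabilizing Salmonella outer membranes while sparing inner membranes. DMSO wells, both with and without polymyxin B, established maximum growth. Plate-to-plate variation meant each plate was ranked on its own, and the lowest-OD600 compounds were selected as hits.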

System: Salmonella enterica serovar Typhimurium SL1344
Experiment: bacterial growth OD600 after 18 h with compound and polymyxin B; higher = more bacterial growth (less inhibition)
Details: 50 µM, Mueller-Hinton broth

Compound	bacterial growth OD600 (polymyxin B 0.75 µg/mL)	bacterial growth OD600 (polymyxin B 1 µg/mL)
COCc1ccc(CN2CCC(C(=O)Nc3cccc(-c4ccn[nH]4)c3)CC2)o1	0.799	–
CC1CN(Cc2cccc3ncccc23)Cc2cc(Cl)ccc2O1 (stereo not given)	0.002	–
COc1ccccc1OCC(=O)NCC1CCCN(Cc2cccc(C)c2)C1 (stereo not given)	–	0.827
O=C(NCc1ccncn1)c1csc2nc(-c3ccc(C(F)(F)F)cc3)cn12	0.562	–
O=C(CCC1(Cc2ccc(Cl)cc2)CCC(=O)N1)NCC1CC1 (stereo not given)	0.84	–
COCCC(=O)N1CCC(Oc2ccc(C(=O)NCc3cnc(C)cn3)cc2)CC1	–	0.836
CCCN1CCC(NCc2cccnc2Oc2ccccc2F)CC1	–	0.905
Cc1oc(-c2cccc(NC(=O)CCc3cccnc3)c2)nc1CNC(=O)Cc1cccc(F)c1F	0.803	–
Cc1ccccc1C1(CC(=O)N2CCN(c3cnccn3)CC2)CC(=O)N(Cc2ccccc2)C1=O (stereo not given)	0.613	–
O=C1O[C@@H]2CN(Cc3ccncc3)C[C@@H]2N1CCc1ccc(F)cc1	0.942	–
CCN(Cc1ccccc1)C(=O)c1cc(NC(=O)COC)cc2ncn(Cc3ccc(F)cc3)c12	0.849	–
CC(C)Cc1ccc(CN2CC[C@@H](N3CCN(c4ccccn4)CC3)[C@H](O)C2)s1	0.689	–
CCOC(=O)C1CCCN(Cc2c(C(=O)N(C)Cc3ccccc3)nc3ccccn23)C1 (stereo not given)	0.529	–
O=C(c1ccccn1)C1CCCN(C(=O)Cn2nnnc2CN2CCCC2)C1 (stereo not given)	–	0.922
CN(C)C1CCN(C(=O)C2(N(C)CCc3ccccc3)Cc3ccccc3C2)C1 (stereo not given)	–	0.872
CN(Cc1nc(-c2ccc(Cl)cc2)no1)C(C1CC1)C1CC1	–	0.716
CN(c1ncccc1CNC(=O)c1ccc[n+]([O-])c1)C1CCCCC1	0.961	–
COc1ccc(Cl)cc1NC(=O)CCC1CCCN(C(=O)CCc2ccncc2)C1 (stereo not given)	–	0.874
COc1c(C)cc(C(=O)C2CCCN(Cc3cnc(SC)nc3)C2)cc1C (stereo not given)	–	0.661
COc1ccc(CC2(CCC(=O)N3CCN(c4cccc(C)c4C)CC3)CCC(=O)N2)cc1OC (stereo not given)	0.764	–
COCCCN1C(=O)CC(CC(=O)N(C)CCn2nc(C)cc2C)(c2ccccc2OC)C1=O (stereo not given)	0.836	–
COc1cc(CN2CCN(Cc3ccc(OC(C)C)cc3)CC2CCO)cc(OC)c1 (stereo not given)	–	0.871
COCc1ccc(C(=O)N2CCC(C(Cc3cccc(OC)c3)N(C)C(=O)c3ccn(C)n3)CC2)o1 (stereo not given)	0.726	–
O=C(c1cn(Cc2ccccc2Cl)nn1)N1CCC(c2ccccc2F)C1 (stereo not given)	–	0.388
COC(=O)c1c(OCCCc2ccccc2)cc(=O)n2c1CCN(C(=O)c1ccc(F)cc1F)CC2	0.789	–
COc1cccc(-c2cnc(-c3ccncc3)nc2C2CCN(Cc3ccc(OC)c(C)c3)CC2)c1	0.816	–
COc1cc(CN2CCN(Cc3cccc4c3OCO4)CC2CCO)cc(OC)c1 (stereo not given)	–	1.03
O=C(CC12CC3CC(CC(C3)C1)C2)N1CCCC(CO)(Cc2ccc(F)cc2)C1 (stereo not given)	0.139	–
COC(=O)CCCC(=O)N1CCC(CCC(=O)Nc2cccc(OC)c2)CC1	–	0.888
CC(Cc1ccccn1)NC(=O)CN1Cc2ccccc2OC(c2ccccc2F)C1 (stereo not given)	0.003	–

A second format for some results above.
Compound | bacterial growth OD600 (polymyxin B 0.75 µg/mL) | bacterial growth OD600 (polymyxin B 1 µg/mL)
CC1CN(Cc2cccc3ncccc23)Cc2cc(Cl)ccc2O1 (stereo not given) | 0.002 | –
COc1ccccc1OCC(=O)NCC1CCCN(Cc2cccc(C)c2)C1 (stereo not given) | – | 0.827
O=C(NCc1ccncn1)c1csc2nc(-c3ccc(C(F)(F)F)cc3)cn12 | 0.562 | –
O=C(CCC1(Cc2ccc(Cl)cc2)CCC(=O)N1)NCC1CC1 (stereo not given) | 0.84 | –
COCCC(=O)N1CCC(Oc2ccc(C(=O)NCc3cnc(C)cn3)cc2)CC1 | – | 0.836
CCCN1CCC(NCc2cccnc2Oc2ccccc2F)CC1 | – | 0.905
Cc1oc(-c2cccc(NC(=O)CCc3cccnc3)c2)nc1CNC(=O)Cc1cccc(F)c1F | 0.803 | –
Cc1ccccc1C1(CC(=O)N2CCN(c3cnccn3)CC2)CC(=O)N(Cc2ccccc2)C1=O (stereo not given) | 0.613 | –
O=C1O[C@@H]2CN(Cc3ccncc3)C[C@@H]2N1CCc1ccc(F)cc1 | 0.942 | –
